# Measurements from the supplement of paper PMC6411743.
# Amino acid sequences for entries named in this document (tags omitted). A change or cut given only in a name is not applied to a line headed by its entry.
# UniProt O95749: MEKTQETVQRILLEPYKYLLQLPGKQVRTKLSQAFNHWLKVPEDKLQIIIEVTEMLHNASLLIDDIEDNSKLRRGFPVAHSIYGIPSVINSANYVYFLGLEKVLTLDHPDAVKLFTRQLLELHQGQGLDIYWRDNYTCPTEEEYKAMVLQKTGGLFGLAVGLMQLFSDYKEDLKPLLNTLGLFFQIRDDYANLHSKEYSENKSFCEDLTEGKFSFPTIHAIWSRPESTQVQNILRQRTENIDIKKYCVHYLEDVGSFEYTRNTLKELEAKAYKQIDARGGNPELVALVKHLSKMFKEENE
# UniProt O96005: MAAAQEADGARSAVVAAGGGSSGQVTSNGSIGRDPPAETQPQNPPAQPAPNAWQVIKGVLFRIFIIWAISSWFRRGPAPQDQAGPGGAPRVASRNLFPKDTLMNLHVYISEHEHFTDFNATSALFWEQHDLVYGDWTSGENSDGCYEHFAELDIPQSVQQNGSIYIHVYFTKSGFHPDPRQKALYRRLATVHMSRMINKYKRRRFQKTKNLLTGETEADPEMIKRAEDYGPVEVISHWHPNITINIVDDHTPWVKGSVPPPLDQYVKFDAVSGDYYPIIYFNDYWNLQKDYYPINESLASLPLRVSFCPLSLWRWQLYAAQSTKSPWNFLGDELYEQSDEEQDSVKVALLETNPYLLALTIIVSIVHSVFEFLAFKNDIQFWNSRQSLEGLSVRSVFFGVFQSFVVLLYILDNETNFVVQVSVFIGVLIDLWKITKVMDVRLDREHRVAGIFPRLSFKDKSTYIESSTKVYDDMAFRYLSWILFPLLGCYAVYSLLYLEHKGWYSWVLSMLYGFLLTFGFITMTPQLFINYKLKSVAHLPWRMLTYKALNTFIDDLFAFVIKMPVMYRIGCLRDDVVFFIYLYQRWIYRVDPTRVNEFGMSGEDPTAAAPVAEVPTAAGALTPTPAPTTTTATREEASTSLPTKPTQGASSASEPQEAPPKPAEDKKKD
# UniProt O96033: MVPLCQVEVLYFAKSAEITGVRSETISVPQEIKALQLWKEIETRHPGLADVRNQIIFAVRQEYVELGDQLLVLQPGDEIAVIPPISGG
# UniProt O95985: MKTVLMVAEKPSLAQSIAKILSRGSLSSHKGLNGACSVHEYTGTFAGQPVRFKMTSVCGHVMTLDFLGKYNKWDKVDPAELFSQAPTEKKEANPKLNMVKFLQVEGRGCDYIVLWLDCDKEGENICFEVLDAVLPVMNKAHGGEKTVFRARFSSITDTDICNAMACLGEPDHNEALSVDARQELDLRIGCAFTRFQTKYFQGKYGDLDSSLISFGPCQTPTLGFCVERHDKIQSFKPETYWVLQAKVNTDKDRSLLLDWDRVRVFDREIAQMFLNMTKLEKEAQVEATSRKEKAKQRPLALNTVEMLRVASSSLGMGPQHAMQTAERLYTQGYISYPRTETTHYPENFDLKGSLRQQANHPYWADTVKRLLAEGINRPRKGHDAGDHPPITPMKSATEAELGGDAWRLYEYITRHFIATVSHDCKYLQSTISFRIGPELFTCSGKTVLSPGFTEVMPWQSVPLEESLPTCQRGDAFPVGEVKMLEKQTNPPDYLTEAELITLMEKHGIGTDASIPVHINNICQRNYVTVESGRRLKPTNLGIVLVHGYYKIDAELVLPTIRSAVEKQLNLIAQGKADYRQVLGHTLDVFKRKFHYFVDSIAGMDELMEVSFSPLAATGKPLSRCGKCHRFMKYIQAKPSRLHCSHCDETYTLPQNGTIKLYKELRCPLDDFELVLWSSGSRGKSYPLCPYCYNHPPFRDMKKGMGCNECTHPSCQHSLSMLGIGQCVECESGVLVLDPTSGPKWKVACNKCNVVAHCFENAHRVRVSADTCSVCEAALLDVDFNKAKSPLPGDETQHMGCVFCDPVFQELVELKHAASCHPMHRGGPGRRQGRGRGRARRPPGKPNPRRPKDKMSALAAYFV
# UniProt P14550: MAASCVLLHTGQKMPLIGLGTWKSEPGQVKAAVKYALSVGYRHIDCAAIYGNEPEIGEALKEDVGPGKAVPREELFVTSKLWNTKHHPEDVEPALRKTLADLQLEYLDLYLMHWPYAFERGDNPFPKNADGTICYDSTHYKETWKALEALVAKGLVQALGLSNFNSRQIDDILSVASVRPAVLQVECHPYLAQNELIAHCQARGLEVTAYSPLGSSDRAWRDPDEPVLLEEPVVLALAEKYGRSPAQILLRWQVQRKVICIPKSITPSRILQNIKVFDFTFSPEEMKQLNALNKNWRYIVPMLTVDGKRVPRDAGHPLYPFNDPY
# UniProt P14316: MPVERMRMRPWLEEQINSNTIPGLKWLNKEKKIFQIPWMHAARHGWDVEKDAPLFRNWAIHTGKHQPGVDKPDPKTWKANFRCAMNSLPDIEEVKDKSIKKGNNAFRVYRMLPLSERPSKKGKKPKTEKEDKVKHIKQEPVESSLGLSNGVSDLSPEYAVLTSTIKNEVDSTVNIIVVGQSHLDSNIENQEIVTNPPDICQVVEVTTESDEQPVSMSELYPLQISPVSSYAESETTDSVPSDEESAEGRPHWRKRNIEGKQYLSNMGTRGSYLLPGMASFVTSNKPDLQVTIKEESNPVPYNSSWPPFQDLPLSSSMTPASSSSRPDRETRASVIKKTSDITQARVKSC
# UniProt P13051, whole entry: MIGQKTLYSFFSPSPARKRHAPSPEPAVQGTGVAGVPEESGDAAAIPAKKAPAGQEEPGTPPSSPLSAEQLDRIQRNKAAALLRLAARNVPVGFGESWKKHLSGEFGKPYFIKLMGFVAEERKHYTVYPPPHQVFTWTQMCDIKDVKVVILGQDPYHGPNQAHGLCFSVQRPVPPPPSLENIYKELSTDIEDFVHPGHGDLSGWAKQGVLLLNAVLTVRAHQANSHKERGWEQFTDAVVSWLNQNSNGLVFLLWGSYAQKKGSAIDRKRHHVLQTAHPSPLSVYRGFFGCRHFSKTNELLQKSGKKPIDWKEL
# UniProt P15291: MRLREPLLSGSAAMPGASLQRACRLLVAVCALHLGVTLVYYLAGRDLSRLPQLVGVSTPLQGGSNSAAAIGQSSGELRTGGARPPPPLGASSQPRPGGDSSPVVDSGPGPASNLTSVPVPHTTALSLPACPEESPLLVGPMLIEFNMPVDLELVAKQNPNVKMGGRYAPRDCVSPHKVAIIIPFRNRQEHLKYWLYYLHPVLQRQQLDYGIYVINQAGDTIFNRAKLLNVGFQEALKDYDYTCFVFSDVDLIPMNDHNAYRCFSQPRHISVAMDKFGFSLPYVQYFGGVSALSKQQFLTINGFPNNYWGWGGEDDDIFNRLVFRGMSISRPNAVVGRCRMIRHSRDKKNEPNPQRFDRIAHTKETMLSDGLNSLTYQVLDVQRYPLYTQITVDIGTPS
# UniProt P08579, whole entry: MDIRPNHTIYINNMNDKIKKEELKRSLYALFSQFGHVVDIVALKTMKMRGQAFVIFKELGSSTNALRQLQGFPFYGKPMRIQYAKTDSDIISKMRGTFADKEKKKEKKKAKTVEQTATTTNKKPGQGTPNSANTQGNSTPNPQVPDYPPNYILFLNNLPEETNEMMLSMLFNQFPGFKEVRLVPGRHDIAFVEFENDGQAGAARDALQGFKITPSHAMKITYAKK
# UniProt O95834: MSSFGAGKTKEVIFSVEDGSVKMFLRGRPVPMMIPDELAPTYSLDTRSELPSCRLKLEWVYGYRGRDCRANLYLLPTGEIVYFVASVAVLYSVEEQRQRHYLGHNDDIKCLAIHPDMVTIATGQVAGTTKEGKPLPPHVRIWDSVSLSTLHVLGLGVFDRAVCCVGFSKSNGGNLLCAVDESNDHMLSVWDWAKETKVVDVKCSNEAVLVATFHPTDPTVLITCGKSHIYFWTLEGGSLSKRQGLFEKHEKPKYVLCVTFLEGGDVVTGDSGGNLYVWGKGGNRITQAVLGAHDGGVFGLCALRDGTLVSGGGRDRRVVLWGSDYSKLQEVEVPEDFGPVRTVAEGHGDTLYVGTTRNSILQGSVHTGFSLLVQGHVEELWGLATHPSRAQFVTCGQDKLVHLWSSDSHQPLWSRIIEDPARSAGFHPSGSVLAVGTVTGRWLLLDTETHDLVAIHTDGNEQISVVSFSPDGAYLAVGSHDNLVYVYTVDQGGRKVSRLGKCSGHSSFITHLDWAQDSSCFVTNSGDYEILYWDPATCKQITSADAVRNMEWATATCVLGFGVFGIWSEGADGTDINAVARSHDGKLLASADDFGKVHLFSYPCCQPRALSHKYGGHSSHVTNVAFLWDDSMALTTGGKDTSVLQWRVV
# UniProt P15104, whole entry: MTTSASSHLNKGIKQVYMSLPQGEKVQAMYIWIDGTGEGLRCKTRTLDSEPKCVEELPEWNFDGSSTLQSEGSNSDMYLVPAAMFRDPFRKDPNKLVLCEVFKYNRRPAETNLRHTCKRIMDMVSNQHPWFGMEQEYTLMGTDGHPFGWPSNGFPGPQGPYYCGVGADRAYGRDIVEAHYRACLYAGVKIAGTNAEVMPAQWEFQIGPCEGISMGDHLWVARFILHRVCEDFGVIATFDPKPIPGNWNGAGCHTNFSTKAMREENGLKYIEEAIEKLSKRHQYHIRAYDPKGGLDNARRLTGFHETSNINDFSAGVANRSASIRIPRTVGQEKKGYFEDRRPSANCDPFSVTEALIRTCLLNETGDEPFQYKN
# UniProt P10606, whole entry: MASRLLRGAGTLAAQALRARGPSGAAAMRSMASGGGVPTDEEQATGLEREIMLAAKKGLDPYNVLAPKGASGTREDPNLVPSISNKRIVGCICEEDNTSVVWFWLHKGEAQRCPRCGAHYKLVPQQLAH
# UniProt P06239: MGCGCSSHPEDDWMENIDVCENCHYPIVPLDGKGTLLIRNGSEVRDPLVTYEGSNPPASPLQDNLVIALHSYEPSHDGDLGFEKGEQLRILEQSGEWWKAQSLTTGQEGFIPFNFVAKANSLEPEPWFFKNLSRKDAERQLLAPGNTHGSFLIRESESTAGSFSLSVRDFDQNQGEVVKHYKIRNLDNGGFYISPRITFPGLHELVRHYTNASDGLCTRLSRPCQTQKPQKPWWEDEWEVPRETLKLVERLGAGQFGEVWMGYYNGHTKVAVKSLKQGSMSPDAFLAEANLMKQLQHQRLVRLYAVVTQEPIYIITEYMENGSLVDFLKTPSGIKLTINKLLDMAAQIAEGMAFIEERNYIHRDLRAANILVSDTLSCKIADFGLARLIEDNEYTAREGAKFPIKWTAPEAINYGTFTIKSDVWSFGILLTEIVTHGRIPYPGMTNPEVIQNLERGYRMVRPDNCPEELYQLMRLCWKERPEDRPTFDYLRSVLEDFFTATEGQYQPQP
# UniProt P11441: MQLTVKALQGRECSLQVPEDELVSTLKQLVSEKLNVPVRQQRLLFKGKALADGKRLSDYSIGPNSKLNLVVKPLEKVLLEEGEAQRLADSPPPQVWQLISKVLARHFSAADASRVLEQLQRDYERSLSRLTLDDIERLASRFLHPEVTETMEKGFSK
# UniProt P00441, whole entry: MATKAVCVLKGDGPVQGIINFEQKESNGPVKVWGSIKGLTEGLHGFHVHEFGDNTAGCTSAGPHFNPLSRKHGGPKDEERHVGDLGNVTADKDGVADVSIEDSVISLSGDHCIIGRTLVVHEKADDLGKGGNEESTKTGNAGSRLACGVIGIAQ
# UniProt P10109: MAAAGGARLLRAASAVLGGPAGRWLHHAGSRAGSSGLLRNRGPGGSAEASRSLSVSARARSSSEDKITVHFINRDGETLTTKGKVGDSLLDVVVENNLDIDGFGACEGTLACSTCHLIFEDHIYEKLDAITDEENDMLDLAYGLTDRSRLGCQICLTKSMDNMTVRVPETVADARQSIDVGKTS
# UniProt P08758: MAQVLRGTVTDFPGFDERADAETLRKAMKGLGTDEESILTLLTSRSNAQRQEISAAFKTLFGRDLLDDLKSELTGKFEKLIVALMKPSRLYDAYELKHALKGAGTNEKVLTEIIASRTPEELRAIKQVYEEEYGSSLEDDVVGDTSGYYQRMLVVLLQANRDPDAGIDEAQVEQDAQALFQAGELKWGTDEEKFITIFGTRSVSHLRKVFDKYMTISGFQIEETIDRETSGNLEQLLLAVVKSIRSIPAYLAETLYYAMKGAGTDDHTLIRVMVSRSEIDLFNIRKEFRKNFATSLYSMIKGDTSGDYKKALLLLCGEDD
# UniProt P15812: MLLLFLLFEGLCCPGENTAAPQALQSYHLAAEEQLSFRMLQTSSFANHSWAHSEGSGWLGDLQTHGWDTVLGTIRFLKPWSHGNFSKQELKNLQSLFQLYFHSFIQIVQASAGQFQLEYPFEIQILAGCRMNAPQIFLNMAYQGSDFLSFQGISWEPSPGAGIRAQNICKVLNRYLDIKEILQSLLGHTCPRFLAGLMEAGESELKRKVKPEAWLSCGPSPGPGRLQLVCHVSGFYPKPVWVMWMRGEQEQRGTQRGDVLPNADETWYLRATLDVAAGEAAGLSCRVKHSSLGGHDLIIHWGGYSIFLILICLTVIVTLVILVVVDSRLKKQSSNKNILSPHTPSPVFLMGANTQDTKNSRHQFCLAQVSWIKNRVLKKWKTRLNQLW
# ± gives the standard deviation of the averaged measurements. The list shows a part of the results, in another mix than the full data.
# Compound: Nc1ncnc2c1ncn2[C@@H]1O[C@H](COP(=O)(O)OP(=O)(O)NP(=O)(O)O)[C@@H](O)[C@H]1O [adenylyl imidodiphosphate]
# Assay: NP40-soluble protein abundance relative to vehicle (solubility fold change) (ratio); higher = more soluble protein in presence of AMP-PNP
# Method in brief: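 Jurkat crude lysate (Dounce-homogenised) was treated with eight concentrations from 0.1 to 10 mM for 10 min at room temperature, then 3 min at 37 °C. It was solubilised with 0.8% NP40 and benzonase (60 min, 4 °C) and ultracentrifuged, and the supernatant was TMT-labelled for LC-MS/MS. Intensities were vsn-normalised, and the value is the fold change against the NP40-processed vehicle per replicate, from three independent experiments.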
Target,NP40-soluble protein abundance (concentration: 1mM),NP40-soluble protein abundance (concentration: 2mM),NP40-soluble protein abundance (concentration: 4mM),NP40-soluble protein abundance (concentration: 6mM),NP40-soluble protein abundance (concentration: 8mM),NP40-soluble protein abundance (concentration: 10mM)
LDHB (UniProt P07195),1.01 ± 0.019,0.92 ± 0.025,0.947 ± 0.02,0.973 ± 0.036,0.969 ± 0.024,0.943 ± 0.013
TPR (UniProt P12270),1.01 ± 0.035,1.03 ± 0.041,0.979 ± 0.019,0.974 ± 0.057,0.942 ± 0.036,0.976 ± 0.04
XRCC6 (UniProt P12956),0.898 ± 0.14,0.892 ± 0.12,0.852 ± 0.082,0.88 ± 0.06,0.932 ± 0.031,0.855 ± 0.092
ANXA2 (UniProt P07355),0.938 ± 0.056,1 ± 0.099,0.942 ± 0.052,1.04 ± 0.1,1.01 ± 0.057,1.02 ± 0.082
VIM (UniProt P08670),1 ± 0.042,1.04 ± 0.032,0.945 ± 0.073,0.923 ± 0.061,0.864 ± 0.082,0.884 ± 0.11
UniProt O95749 and related entries,1 ± 0.032,0.969 ± 0.027,0.9656 ± 0.0033,0.974 ± 0.016,0.978 ± 0.017,0.944 ± 0.015
UniProt O96005 and related entries,1.02 ± 0.065,0.971 ± 0.019,0.999 ± 0.044,0.994 ± 0.057,0.984 ± 0.037,1 ± 0.041
UniProt P09471-2,0.956 ± 0.045,0.928 ± 0.075,0.965 ± 0.063,0.939 ± 0.057,0.92 ± 0.045,0.947 ± 0.055
O96007 and related entries (UniProt O96033+O96007),1.006 ± 0.0091,0.999 ± 0.026,0.983 ± 0.017,0.986 ± 0.022,0.969 ± 0.029,0.991 ± 0.046
RNH1 (UniProt P13489),0.944 ± 0.038,0.899 ± 0.041,0.919 ± 0.047,0.957 ± 0.053,0.961 ± 0.043,0.916 ± 0.052
UniProt O95985 and related entries,0.997 ± 0.014,0.982 ± 0.023,0.995 ± 0.027,0.991 ± 0.016,1.02 ± 0.014,1 ± 0.031
AKR1A1 (UniProt P14550),0.957 ± 0.043,0.931 ± 0.053,0.955 ± 0.03,0.951 ± 0.032,0.96 ± 0.032,0.929 ± 0.068
UniProt P14316 and related entries,1.02 ± 0.055,1.08 ± 0.11,1.07 ± 0.036,1.08 ± 0.049,1.09 ± 0.033,1.1 ± 0.046
UniProt P06729,0.996 ± 0.069,1.15 ± 0.33,1.02 ± 0.13,1.23 ± 0.18,1.19 ± 0.14,1.28 ± 0.19
UniProt P13051 and related entries,0.992 ± 0.058,0.987 ± 0.01,0.9971 ± 0.0073,1.08 ± 0.068,1.07 ± 0.043,1.06 ± 0.027
UniProt P15291 and related entries,0.983 ± 0.036,0.967 ± 0.044,0.966 ± 0.023,0.977 ± 0.0099,0.961 ± 0.031,0.977 ± 0.023
SNRPB2 (UniProt P08579),0.992 ± 0.048,1.02 ± 0.051,1.03 ± 0.047,1.02 ± 0.023,1.08 ± 0.075,1.03 ± 0.051
SP1 (UniProt P08047),1.01 ± 0.035,1.08 ± 0.098,1 ± 0.045,1.02 ± 0.026,0.99 ± 0.018,1.07 ± 0.031

Target,NP40-soluble protein abundance (concentration: 1mM),NP40-soluble protein abundance (concentration: 2mM),NP40-soluble protein abundance (concentration: 4mM),NP40-soluble protein abundance (concentration: 6mM),NP40-soluble protein abundance (concentration: 8mM),NP40-soluble protein abundance (concentration: 10mM)
UniProt O95834 and related entries,0.988 ± 0.011,0.932 ± 0.081,0.982 ± 0.023,0.952 ± 0.018,0.967 ± 0.015,0.93 ± 0.022
DLD (UniProt P09622),0.99 ± 0.057,0.963 ± 0.11,0.983 ± 0.069,0.993 ± 0.072,1.01 ± 0.072,1 ± 0.08
GLUL (UniProt P15104),0.978 ± 0.029,0.989 ± 0.015,0.952 ± 0.017,0.951 ± 0.075,0.918 ± 0.044,0.915 ± 0.055
COX5B (UniProt P10606),1.01 ± 0.017,1.06 ± 0.079,1.01 ± 0.02,0.959 ± 0.017,0.954 ± 0.043,0.981 ± 0.023
UniProt P06239 and related entries,1.05 ± 0.024,1.02 ± 0.11,1.05 ± 0.046,1 ± 0.035,0.996 ± 0.043,0.99 ± 0.065
UBL4A (UniProt P11441),1.001 ± 0.0077,1.03 ± 0.07,0.969 ± 0.055,0.96 ± 0.037,0.968 ± 0.064,0.945 ± 0.089
UniProt P00441 and related entries,0.867 ± 0.15,1.17 ± 0.17,0.809 ± 0.086,1.05 ± 0.11,0.858 ± 0.12,0.972 ± 0.11
GLUD1 (UniProt P00367),0.956 ± 0.02,0.902 ± 0.045,0.909 ± 0.025,0.925 ± 0.018,0.9 ± 0.036,0.876 ± 0.046
FDX1 (UniProt P10109),0.974 ± 0.028,0.979 ± 0.034,0.943 ± 0.053,0.945 ± 0.032,0.897 ± 0.06,0.916 ± 0.054
ADA (UniProt P00813),0.991 ± 0.026,0.952 ± 0.018,0.969 ± 0.0092,0.993 ± 0.04,0.986 ± 0.068,0.956 ± 0.098
UniProt P00338-2|P00338-3,0.917 ± 0.095,0.806 ± 0.0098,0.795 ± 0.11,0.96 ± 0.16,1.03 ± 0.087,0.877 ± 0.12
UniProt P08240,1.01 ± 0.012,0.996 ± 0.032,1.04 ± 0.016,1.03 ± 0.022,1.06 ± 0.017,1.057 ± 0.0089
UniProt P08134 and related entries,1.04 ± 0.062,0.998 ± 0.04,1.05 ± 0.082,1.06 ± 0.13,1.1 ± 0.067,1.13 ± 0.11
NRAS (UniProt P01111),1.07 ± 0.062,1.08 ± 0.11,1.04 ± 0.08,0.977 ± 0.034,1.01 ± 0.043,0.975 ± 0.09
ANXA5 (UniProt P08758),0.993 ± 0.02,0.995 ± 0.054,1.01 ± 0.053,1.1 ± 0.075,1.1 ± 0.042,1.02 ± 0.034
CTSB (UniProt P07858),1.01 ± 0.035,1.03 ± 0.025,0.995 ± 0.043,0.968 ± 0.035,0.971 ± 0.037,0.966 ± 0.055
UniProt P15812 and related entries,0.971 ± 0.011,0.965 ± 0.023,0.962 ± 0.011,1.01 ± 0.037,1.03 ± 0.052,1.03 ± 0.046

# No new results follow: an excerpt of the list.
Target,NP40-soluble protein abundance (concentration: 1mM),NP40-soluble protein abundance (concentration: 2mM),NP40-soluble protein abundance (concentration: 4mM),NP40-soluble protein abundance (concentration: 6mM),NP40-soluble protein abundance (concentration: 8mM),NP40-soluble protein abundance (concentration: 10mM)
ANXA5 (UniProt P08758),0.993 ± 0.02,0.995 ± 0.054,1.01 ± 0.053,1.1 ± 0.075,1.1 ± 0.042,1.02 ± 0.034
CTSB (UniProt P07858),1.01 ± 0.035,1.03 ± 0.025,0.995 ± 0.043,0.968 ± 0.035,0.971 ± 0.037,0.966 ± 0.055
